Measurements reported in patent publication US20150111836A1, “CELLULAR APOBEC3 PROTEINS AND MODULATORS THEREOF FOR REGULATING DNA REPAIR PROCESSES AND TREATING PROLIFERATIVE DISEASES” (priority 2012, published 2015).
At least one peptide structure holds a part that was inferred or is arguable (an end, a ring closure or a residue). Where no end group is shown, it is not given here.

Protein sequences, listed by entry. Tags and fused reporters are not part of them. Lines headed by an entry give the natural chain unless they say otherwise; changes in a name come on top.
UniProt Q9HC16: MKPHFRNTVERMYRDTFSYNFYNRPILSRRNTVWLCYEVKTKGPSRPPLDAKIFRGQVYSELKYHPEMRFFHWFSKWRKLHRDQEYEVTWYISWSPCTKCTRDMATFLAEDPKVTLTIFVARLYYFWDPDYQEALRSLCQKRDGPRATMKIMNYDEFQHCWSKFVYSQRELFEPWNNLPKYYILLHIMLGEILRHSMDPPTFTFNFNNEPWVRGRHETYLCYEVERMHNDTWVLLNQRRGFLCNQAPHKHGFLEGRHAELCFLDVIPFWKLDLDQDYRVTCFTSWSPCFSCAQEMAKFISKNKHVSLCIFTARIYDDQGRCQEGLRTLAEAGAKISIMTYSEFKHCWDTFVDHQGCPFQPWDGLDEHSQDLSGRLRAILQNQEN

Experiments:
A3G = biological target: T1, A3G (Homo sapiens, UniProt Q9HC16); type: biochemical; details: for mode of inhibition of A3G: double-reciprocal plot, FIG. 17; for inhibition of A3G deaminase activity: peptide at 1 μM, FIG. 15B
T1 construct: Myc (C); His6 (C); made in house; host or cells: 293T cells (human embryonic kidney), transfected with pcDNA3.1-A3GMyc-His6, Ni-NTA purified
Method: Deaminase activity of purified enzyme and virion-associated A3G protein was examined as previously described. Briefly, A3G deamination reactions were performed in a total volume of 10 μl in 25 mM Tris, pH 7.0, and 0.01-1 fmol single-stranded (ss) deoxyoligonucleotide substrate at 37° C. The reaction was terminated by heating to 95° C. for 5 min. One μl of the reaction mixture was used for PCR amplification performed in 20 μl buffer S, using the following program: 1 cycle at 95° C. for 3 min, followed by 30 cycles of annealing at 61° C. for 30 s and denaturing at 94° C. for 30 s. Aliquots of the PCR products (10 μl) were incubated with Eco147I restriction enzyme for 1 h at 37° C. Completion of the restriction reaction was verified by using positive-control substrate containing CCU instead of CCC. Restriction-reaction products were loaded onto 14% gels and separated by PAGE. Gels were stained with SYBR gold nucleic acid stain diluted 1:10,000 in 0.5× Tris-Borate-EDTA buffer (TBE, pH 7.8), visualized by UV light (312 nm), captured by an Olympus C-5050 charge-coupled device (CCD) camera and analyzed by optical density (OD) scan using the TINA2.0 densitometry software. Assessment of A3G entrapped in virions was carried out with concentrated viruses stocks of 3-5 μg of p24/μl) suspended in PBS containing Triton X-100 at final concentration of 0.1% (vv) and 50 μg/ml RNase A (Sigma-Aldrich). Deamination reactions were incubated for 1 h at 37° C.
A panel of 46 HIV-1 Vif-derived 15-mer peptides (obtained through the NIH AIDS Research and Reference Reagent Program) were screened for inhibition of purified A3G-His6 catalytic activity in a standard cytidine deamination assay. […] A fluorescein-conjugated peptide (kindly provided by Dr. Assaf Friedler) was used to assess the peptide uptake by H9 cells.

H9 cells = assay: DSB repair (γ-H2AX staining) in irradiated H9 cells pre-incubated with Vif peptides; type: cell-based, human
Method: Cells were irradiated by exposure to a ^60Co source producing 1 Gy sec^−1 γ-radiation, or mock-irradiated. Following incubation at 37° C., cells were fixed, attached to glass slides by cytospin, permeabilized with detergent and blocked with 10% normal goat serum. Cells were then incubated with A3G-specific rabbit polyclonal antibody, γ-H2AX-specific monoclonal antibody, or RPA32-specific monoclonal antibody, followed by incubation with goat anti-rabbit Cy-5-conjugated antibody, goat anti-mouse Cy-2-conjugated antibody and DAPI. Slides were mounted and examined by Zeiss LSM 710 confocal microscope. Data were collected sequentially using a ×63 objective with 7-fold averaging at a resolution of […], Z-sections were obtained using an optical slice of less than 1 μm. Data were analyzed with the Zen 2009.
A panel of 46 HIV-1 Vif-derived 15-mer peptides (obtained through the NIH AIDS Research and Reference Reagent Program) were screened for inhibition of purified A3G-His6 catalytic activity in a standard cytidine deamination assay. The inhibitory peptide Vif25-39 corresponds to amino acids 25-39 in HIV-1 HXBII Vif. A fluorescein-conjugated peptide (kindly provided by Dr. Assaf Friedler) was used to assess the peptide uptake by H9 cells. […]

Sequence	mode of inhibition of A3G (A3G)	inhibition of A3G deaminase activity (A3G)	cells containing DSBs (H9 cells; H9 cells, 2 h pre-incubation with 100 μM peptide, 4 Gy IR, stained after 8 h) [%]	recruitment of A3G to DSBs (H9 cells; irradiated pre-treated H9 cells, FIG. 18C)
QLIHLYYFDCFSESA [Vif105-119]	mixed	inhibited		
VKHHMYISGKAKGWF [Vif25-39]	uncompetitive	inhibited	32±4.3	did not prevent recruitment
